PubChem BioAssay AID602196 | INSERM | 2012

- Screen: 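Modifiers of cisplatin sensitivity in A549 cells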
- Cells: human A549 lung cancer cells
- Knock-down reagent: siRNA pair against human genes
- Duration: 48 h transfection before cisplatin; time from cisplatin to read-out not stated
- Conditions: cisplatin at a dose killing half of control-siRNA cells; exact dose and duration not given
- Read-out: 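Shift in cisplatin death relative to control siRNA, from -50 (all cells die) to +50 (no cells die); siRNAs harmful on their own scored 0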
- Direction: two-siRNA summed score (-2 to +2): higher = both siRNAs protect from cisplatin killing; -2 means both sensitise; mean protection from cisplatin (shift in death): higher = protection from cisplatin killing
- Rule for the call: 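siRNAs harmful alone (LDH or WST-1) get 0; others get +1 for less and -1 for more cisplatin killing; genes are active when the two siRNAs give the same sign, summing to ±2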
- Meaning of the calls: active = both siRNAs shift cisplatin killing the same way; inactive = no consistent shift, or siRNA harmful alone
In all, the deposit lists about 23,000 reagents; this is an unselected part. Of all reagents, 455 (2%) got an active call. 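Active includes both protection and sensitisation; some change values fall well beyond the stated -50 to +50 range.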 Not all columns of the deposit are shown. Not given: the amount of reagent.

GAGE12I | two-siRNA summed score (-2 to +2) = 0; mean protection from cisplatin (shift in death) (%) = 10.8; Outcome = inactive
CHTF8 | two-siRNA summed score (-2 to +2) = 0; mean protection from cisplatin (shift in death) (%) = 13.4; Outcome = inactive
NFKBIB | two-siRNA summed score (-2 to +2) = 0; mean protection from cisplatin (shift in death) (%) = -1.5; Outcome = inactive
LOC391053 | two-siRNA summed score (-2 to +2) = 0; mean protection from cisplatin (shift in death) (%) = 10.3; Outcome = inactive
NRXN3 | two-siRNA summed score (-2 to +2) = 0; mean protection from cisplatin (shift in death) (%) = 5.9; Outcome = inactive
LOC440089 | two-siRNA summed score (-2 to +2) = 0; mean protection from cisplatin (shift in death) (%) = -1.3; Outcome = inactive
RTN4RL1 | two-siRNA summed score (-2 to +2) = 1; mean protection from cisplatin (shift in death) (%) = 15.7; Outcome = inactive
CNOT1 | two-siRNA summed score (-2 to +2) = 0; mean protection from cisplatin (shift in death) (%) = 13.8; Outcome = inactive
SKIDA1 | two-siRNA summed score (-2 to +2) = 1; mean protection from cisplatin (shift in death) (%) = 10.5; Outcome = inactive
LOC441458 | two-siRNA summed score (-2 to +2) = 1; mean protection from cisplatin (shift in death) (%) = 3.6; Outcome = inactive
MUC5B | two-siRNA summed score (-2 to +2) = 0; mean protection from cisplatin (shift in death) (%) = 17.1; Outcome = inactive
NCOR2 | two-siRNA summed score (-2 to +2) = 0; mean protection from cisplatin (shift in death) (%) = -5.1; Outcome = inactive
NEK4 | two-siRNA summed score (-2 to +2) = -1; mean protection from cisplatin (shift in death) (%) = -10.8; Outcome = inactive
COPG1 | two-siRNA summed score (-2 to +2) = 0; mean protection from cisplatin (shift in death) (%) = -11.1; Outcome = inactive
MFSD6 | two-siRNA summed score (-2 to +2) = 0; mean protection from cisplatin (shift in death) (%) = 8.3; Outcome = inactive
RBPMS | two-siRNA summed score (-2 to +2) = 0; mean protection from cisplatin (shift in death) (%) = -3.1; Outcome = inactive
ZNF568 | two-siRNA summed score (-2 to +2) = 0; mean protection from cisplatin (shift in death) (%) = 4.2; Outcome = inactive
LYPD3 | two-siRNA summed score (-2 to +2) = 0; mean protection from cisplatin (shift in death) (%) = -6.1; Outcome = inactive
BCAP29 | two-siRNA summed score (-2 to +2) = 0; mean protection from cisplatin (shift in death) (%) = -13.7; Outcome = inactive
ZBTB21 | two-siRNA summed score (-2 to +2) = 0; mean protection from cisplatin (shift in death) (%) = 14.8; Outcome = inactive
CIPC | two-siRNA summed score (-2 to +2) = 0; mean protection from cisplatin (shift in death) (%) = 4.9; Outcome = inactive
OR1S1 | two-siRNA summed score (-2 to +2) = 2; mean protection from cisplatin (shift in death) (%) = 23; Outcome = active
MCM3AP | two-siRNA summed score (-2 to +2) = -1; mean protection from cisplatin (shift in death) (%) = -14.5; Outcome = inactive
MMP19 | two-siRNA summed score (-2 to +2) = 0; mean protection from cisplatin (shift in death) (%) = 0.3; Outcome = inactive
SMCR8 | two-siRNA summed score (-2 to +2) = 0; mean protection from cisplatin (shift in death) (%) = -5.6; Outcome = inactive
DAAM1 | two-siRNA summed score (-2 to +2) = 1; mean protection from cisplatin (shift in death) (%) = 7.9; Outcome = inactive
MUC15 | two-siRNA summed score (-2 to +2) = 0; mean protection from cisplatin (shift in death) (%) = 5.4; Outcome = inactive
THRSP | two-siRNA summed score (-2 to +2) = 0; mean protection from cisplatin (shift in death) (%) = -3.5; Outcome = inactive
LILRA6 | two-siRNA summed score (-2 to +2) = 0; mean protection from cisplatin (shift in death) (%) = 12.9; Outcome = inactive
DIAPH3 | two-siRNA summed score (-2 to +2) = 0; mean protection from cisplatin (shift in death) (%) = 7.3; Outcome = inactive
RAB36 | two-siRNA summed score (-2 to +2) = -1; mean protection from cisplatin (shift in death) (%) = -14.1; Outcome = inactive

As entered above.
MUC5B, mean protection from cisplatin (shift in death) (%) → 17.1
Entry of NEK4 under “two-siRNA summed score (-2 to +2)”: -1
